PubChem BioAssay AID652243, Drosophila RNAi Screening Center – 2013
Purpose: 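Fly regulators of androgen-dependent reporter output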 (primary screen). Cell system: Drosophila S2R+ cells. Reagent: long dsRNA against Drosophila genes. Timing: 72 h (48 h, then 24 h hormone). Conditions: synthetic androgen R1881 at 10 nM for 24 h. Detection: 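Per-well raw luminescence of the androgen-driven firefly reporter and of the Renilla control, two replicates each, without normalisation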. Reading the numbers: firefly reporter light: higher = more light from androgen-responsive reporter; Renilla control light: higher = more constitutive control signal (cell number, transfection). Active means: 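Across duplicate plates, a knock-down whose log firefly/Renilla ratio shifted a set fold down or up from the GFP/LacZ control mean was a hit; the downward cut appears as both 1.5 and 3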. Calls: active = hit: reporter lowered or raised; inactive = no hit.
The deposit covers about 24,000 reagents; below is an unselected part of those with a known target gene and a result. Over the whole deposit, 246 (1%) got an active call. 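Plates not normalised; calls are printed but the firefly/Renilla ratio behind them is not deposited; fold cut for lowering reported inconsistently.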 Raw values are not corrected between plates. Not given: the amount of reagent.

After knock-down of Eaf [DRSC05050], the record shows firefly reporter light, replicate 1 = 25727; firefly reporter light, replicate 2 = 48559; Renilla control light, replicate 1 = 1.61e5; Renilla control light, replicate 2 = 2.16e5; inactive.
Depletion of Eaf [DRSC06052] came out at: firefly reporter light, replicate 1 = 3.59e5; firefly reporter light, replicate 2 = 3.61e5; Renilla control light, replicate 1 = 9.08e5; Renilla control light, replicate 2 = 8.89e5; inactive.
Eaf [DRSC22028] scored firefly reporter light, replicate 1 = 4.88e5; firefly reporter light, replicate 2 = 7.30e5; Renilla control light, replicate 1 = 1.89e6; Renilla control light, replicate 2 = 1.63e6; inactive.
Eaf [DRSC27471] showed firefly reporter light, replicate 1 = 3.42e5; firefly reporter light, replicate 2 = 3.59e5; Renilla control light, replicate 1 = 8.69e5; Renilla control light, replicate 2 = 8.37e5; inactive.
After knock-down of CG2493 [DRSC02707], the screen gave firefly reporter light, replicate 1 = 3.13e5; firefly reporter light, replicate 2 = 1.44e6; Renilla control light, replicate 1 = 9.70e5; Renilla control light, replicate 2 = 1.68e6; inactive.
Knock-down of CG5704 [DRSC08572] came out at: firefly reporter light, replicate 1 = 8.26e5; firefly reporter light, replicate 2 = 8.34e5; Renilla control light, replicate 1 = 2.12e6; Renilla control light, replicate 2 = 2.08e6; inactive.
For Ice1 [DRSC04191], the entry reads firefly reporter light, replicate 1 = 2.98e5; firefly reporter light, replicate 2 = 1.17e5; Renilla control light, replicate 1 = 1.54e6; Renilla control light, replicate 2 = 9.22e5; inactive.
For Ice1 [DRSC23585], the entry reads firefly reporter light, replicate 1 = 7.87e5; firefly reporter light, replicate 2 = 8.09e5; Renilla control light, replicate 1 = 1.36e6; Renilla control light, replicate 2 = 1.66e6; inactive.

2 of these entries in another layout.
Eaf [DRSC22028]
- firefly reporter light, replicate 1: 4.88e5
- firefly reporter light, replicate 2: 7.30e5
- Renilla control light, replicate 1: 1.89e6
- Renilla control light, replicate 2: 1.63e6
- Outcome: inactive

Eaf [DRSC27471]
- firefly reporter light, replicate 1: 3.42e5
- firefly reporter light, replicate 2: 3.59e5
- Renilla control light, replicate 1: 8.69e5
- Renilla control light, replicate 2: 8.37e5
- Outcome: inactive

Continued:
For fend [DRSC17601] the deposit lists firefly reporter light, replicate 1 = 1.06e6; firefly reporter light, replicate 2 = 8.40e5; Renilla control light, replicate 1 = 6.73e5; Renilla control light, replicate 2 = 5.66e5; inactive.
Silencing of fend [DRSC17867] gave: firefly reporter light, replicate 1 = 3.57e5; firefly reporter light, replicate 2 = 4.00e5; Renilla control light, replicate 1 = 3.21e6; Renilla control light, replicate 2 = 3.02e6; inactive.
Against Fum1 [DRSC18344], the values are firefly reporter light, replicate 1 = 5.79e5; firefly reporter light, replicate 2 = 5.48e5; Renilla control light, replicate 1 = 2.25e6; Renilla control light, replicate 2 = 1.66e6; inactive.
After knock-down of Fum1 [DRSC27406] the results were firefly reporter light, replicate 1 = 5.29e5; firefly reporter light, replicate 2 = 4.62e5; Renilla control light, replicate 1 = 7.68e5; Renilla control light, replicate 2 = 8.63e5; inactive.
Silencing of CG9570 [DRSC20687] gave: firefly reporter light, replicate 1 = 1.60e5; firefly reporter light, replicate 2 = 1.64e5; Renilla control light, replicate 1 = 4.30e5; Renilla control light, replicate 2 = 2.84e5; inactive.
Silencing of CG3078 [DRSC18531] resulted in: firefly reporter light, replicate 1 = 9450; firefly reporter light, replicate 2 = 11988; Renilla control light, replicate 1 = 2.89e5; Renilla control light, replicate 2 = 2.40e5; inactive.
Silencing of CG3078 [DRSC23471] gave: firefly reporter light, replicate 1 = 7.23e5; firefly reporter light, replicate 2 = 4.43e5; Renilla control light, replicate 1 = 5.10e5; Renilla control light, replicate 2 = 5.21e5; inactive.
Knock-down of CG3078 [DRSC38979] resulted in: firefly reporter light, replicate 1 = 1.11e6; firefly reporter light, replicate 2 = 6.45e5; Renilla control light, replicate 1 = 1.72e6; Renilla control light, replicate 2 = 1.50e6; inactive.
CG14435 [DRSC23282] scored firefly reporter light, replicate 1 = 6.87e5; firefly reporter light, replicate 2 = 6.77e5; Renilla control light, replicate 1 = 9.78e5; Renilla control light, replicate 2 = 1.43e6; inactive.
Against mod [DRSC16999], the values are firefly reporter light, replicate 1 = 1.55e5; firefly reporter light, replicate 2 = 1.15e5; Renilla control light, replicate 1 = 8.21e5; Renilla control light, replicate 2 = 5.97e5; inactive.
mod [DRSC28409] showed firefly reporter light, replicate 1 = 3.86e5; firefly reporter light, replicate 2 = 7.33e5; Renilla control light, replicate 1 = 5.03e5; Renilla control light, replicate 2 = 1.19e6; inactive.
Silencing of Dbp21E2 [DRSC00616] resulted in: firefly reporter light, replicate 1 = 5.66e5; firefly reporter light, replicate 2 = 4.78e5; Renilla control light, replicate 1 = 2.22e6; Renilla control light, replicate 2 = 1.77e6; inactive.
Depletion of Dbp21E2 [DRSC28425] came out at: firefly reporter light, replicate 1 = 1.94e5; firefly reporter light, replicate 2 = 3.83e5; Renilla control light, replicate 1 = 7.45e5; Renilla control light, replicate 2 = 1.05e6; inactive.
